Measured values from paper PMC7701510, “Identification of HN252 as a potent inhibitor of protein phosphatase PPM1B” (Journal of Cellular and Molecular Medicine, 2020).

Protein sequences, listed by entry. Tags and fused reporters are not part of them.
UniProt P31749: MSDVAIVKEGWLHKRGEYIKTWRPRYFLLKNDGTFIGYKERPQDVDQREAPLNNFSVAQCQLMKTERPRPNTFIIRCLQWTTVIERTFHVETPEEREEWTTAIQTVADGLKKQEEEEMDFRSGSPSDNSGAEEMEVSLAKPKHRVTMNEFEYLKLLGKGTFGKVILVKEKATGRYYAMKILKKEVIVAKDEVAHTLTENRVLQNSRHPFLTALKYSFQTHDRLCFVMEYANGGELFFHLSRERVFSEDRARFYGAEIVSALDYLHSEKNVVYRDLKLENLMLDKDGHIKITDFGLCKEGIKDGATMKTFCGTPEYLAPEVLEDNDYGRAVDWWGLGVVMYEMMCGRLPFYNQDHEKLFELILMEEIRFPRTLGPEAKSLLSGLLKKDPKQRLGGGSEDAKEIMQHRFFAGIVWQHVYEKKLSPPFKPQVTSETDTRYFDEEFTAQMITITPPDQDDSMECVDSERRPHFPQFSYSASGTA
UniProt P08238: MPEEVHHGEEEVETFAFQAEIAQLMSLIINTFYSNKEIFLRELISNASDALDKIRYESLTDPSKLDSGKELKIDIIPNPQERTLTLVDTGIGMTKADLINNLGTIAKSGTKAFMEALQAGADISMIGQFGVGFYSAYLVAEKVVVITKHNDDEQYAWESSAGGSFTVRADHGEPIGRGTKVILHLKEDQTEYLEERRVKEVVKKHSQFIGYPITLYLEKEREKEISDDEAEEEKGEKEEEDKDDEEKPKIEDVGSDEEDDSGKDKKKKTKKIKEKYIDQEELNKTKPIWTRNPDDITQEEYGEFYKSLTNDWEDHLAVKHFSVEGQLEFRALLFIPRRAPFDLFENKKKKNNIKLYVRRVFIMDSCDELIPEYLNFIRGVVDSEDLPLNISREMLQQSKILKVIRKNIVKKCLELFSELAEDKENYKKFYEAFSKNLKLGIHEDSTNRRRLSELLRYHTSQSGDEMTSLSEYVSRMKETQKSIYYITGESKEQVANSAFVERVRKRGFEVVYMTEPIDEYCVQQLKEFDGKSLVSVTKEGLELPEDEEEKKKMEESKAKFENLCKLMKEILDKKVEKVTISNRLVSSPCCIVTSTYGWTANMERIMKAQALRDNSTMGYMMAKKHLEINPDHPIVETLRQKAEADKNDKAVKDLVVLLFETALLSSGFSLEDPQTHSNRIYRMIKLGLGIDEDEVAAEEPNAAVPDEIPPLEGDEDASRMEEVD
UniProt P35222: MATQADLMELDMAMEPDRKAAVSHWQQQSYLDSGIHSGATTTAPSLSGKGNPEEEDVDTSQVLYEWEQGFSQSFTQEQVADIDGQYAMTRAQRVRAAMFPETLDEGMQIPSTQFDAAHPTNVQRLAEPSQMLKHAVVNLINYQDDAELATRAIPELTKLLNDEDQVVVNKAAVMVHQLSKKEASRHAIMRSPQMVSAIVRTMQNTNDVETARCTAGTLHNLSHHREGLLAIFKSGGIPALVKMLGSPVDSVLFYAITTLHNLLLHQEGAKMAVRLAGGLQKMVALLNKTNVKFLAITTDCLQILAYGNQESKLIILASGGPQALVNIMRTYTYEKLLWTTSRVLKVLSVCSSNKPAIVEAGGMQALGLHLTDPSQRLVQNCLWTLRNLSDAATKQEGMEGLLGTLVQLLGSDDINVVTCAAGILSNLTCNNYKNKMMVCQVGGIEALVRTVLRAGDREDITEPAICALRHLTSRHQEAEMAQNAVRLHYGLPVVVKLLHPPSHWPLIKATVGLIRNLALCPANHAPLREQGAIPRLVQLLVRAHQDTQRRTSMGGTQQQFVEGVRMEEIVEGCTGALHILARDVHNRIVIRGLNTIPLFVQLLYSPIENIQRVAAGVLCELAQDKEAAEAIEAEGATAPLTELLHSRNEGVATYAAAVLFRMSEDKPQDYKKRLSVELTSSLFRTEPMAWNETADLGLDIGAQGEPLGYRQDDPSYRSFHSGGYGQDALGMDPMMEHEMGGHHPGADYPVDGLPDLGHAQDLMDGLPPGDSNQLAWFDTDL

Target: T1, HA-PPM1B (protein phosphatase 1B) (human) (UniProt O75688)
T1 sequence: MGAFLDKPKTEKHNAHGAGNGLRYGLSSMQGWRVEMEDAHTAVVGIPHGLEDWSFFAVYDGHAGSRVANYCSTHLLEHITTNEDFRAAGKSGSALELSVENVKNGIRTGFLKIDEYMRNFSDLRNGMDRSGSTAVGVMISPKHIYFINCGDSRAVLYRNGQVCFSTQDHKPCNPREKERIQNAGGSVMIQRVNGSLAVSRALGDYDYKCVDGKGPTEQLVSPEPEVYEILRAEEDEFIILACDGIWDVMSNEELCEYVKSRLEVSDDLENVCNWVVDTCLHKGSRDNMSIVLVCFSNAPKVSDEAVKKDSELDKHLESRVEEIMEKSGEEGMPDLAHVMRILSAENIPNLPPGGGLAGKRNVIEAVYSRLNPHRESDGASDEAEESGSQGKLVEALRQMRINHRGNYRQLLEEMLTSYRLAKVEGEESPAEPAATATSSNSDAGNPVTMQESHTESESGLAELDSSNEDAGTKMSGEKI
Experiment: affinity purification with mass spectrometry; lysates of HL7702 cells overexpressing pCDH-HA-PPM1B or pCDH blank vector, immunoprecipitated with Anti-HA Magnetic Beads; eluted proteins digested with trypsin, Q Exactive HF-X, MASCOT against the UniProt human database

| Substance | binding |
| --- | --- |
| AKT1 (from UniProt P31749 1-480) | binds |
| HSP90B (from UniProt P08238 1-724) | binds |
| β-catenin (from UniProt P35222 1-781) | binds |

These are yes or no findings as the source states them, for the method shown. In cells and extracts the contact can be indirect. Here binding means that the protein was enriched with, or labelled near, the bait; the list need not be complete. Sequences can lack the tags named with a protein.
